Laboratory results taken from article PMC11673774.
Results are given in words; binding and its absence hold for the method and conditions named. In cells and extracts the contact can be indirect. Some results given as binding are weak or reduced against the parent protein; the word gives no strength.

Amino acid sequences for entries named in this document (tags omitted). Residues count along the entry.
UniProt Q01705, residues 19-2531: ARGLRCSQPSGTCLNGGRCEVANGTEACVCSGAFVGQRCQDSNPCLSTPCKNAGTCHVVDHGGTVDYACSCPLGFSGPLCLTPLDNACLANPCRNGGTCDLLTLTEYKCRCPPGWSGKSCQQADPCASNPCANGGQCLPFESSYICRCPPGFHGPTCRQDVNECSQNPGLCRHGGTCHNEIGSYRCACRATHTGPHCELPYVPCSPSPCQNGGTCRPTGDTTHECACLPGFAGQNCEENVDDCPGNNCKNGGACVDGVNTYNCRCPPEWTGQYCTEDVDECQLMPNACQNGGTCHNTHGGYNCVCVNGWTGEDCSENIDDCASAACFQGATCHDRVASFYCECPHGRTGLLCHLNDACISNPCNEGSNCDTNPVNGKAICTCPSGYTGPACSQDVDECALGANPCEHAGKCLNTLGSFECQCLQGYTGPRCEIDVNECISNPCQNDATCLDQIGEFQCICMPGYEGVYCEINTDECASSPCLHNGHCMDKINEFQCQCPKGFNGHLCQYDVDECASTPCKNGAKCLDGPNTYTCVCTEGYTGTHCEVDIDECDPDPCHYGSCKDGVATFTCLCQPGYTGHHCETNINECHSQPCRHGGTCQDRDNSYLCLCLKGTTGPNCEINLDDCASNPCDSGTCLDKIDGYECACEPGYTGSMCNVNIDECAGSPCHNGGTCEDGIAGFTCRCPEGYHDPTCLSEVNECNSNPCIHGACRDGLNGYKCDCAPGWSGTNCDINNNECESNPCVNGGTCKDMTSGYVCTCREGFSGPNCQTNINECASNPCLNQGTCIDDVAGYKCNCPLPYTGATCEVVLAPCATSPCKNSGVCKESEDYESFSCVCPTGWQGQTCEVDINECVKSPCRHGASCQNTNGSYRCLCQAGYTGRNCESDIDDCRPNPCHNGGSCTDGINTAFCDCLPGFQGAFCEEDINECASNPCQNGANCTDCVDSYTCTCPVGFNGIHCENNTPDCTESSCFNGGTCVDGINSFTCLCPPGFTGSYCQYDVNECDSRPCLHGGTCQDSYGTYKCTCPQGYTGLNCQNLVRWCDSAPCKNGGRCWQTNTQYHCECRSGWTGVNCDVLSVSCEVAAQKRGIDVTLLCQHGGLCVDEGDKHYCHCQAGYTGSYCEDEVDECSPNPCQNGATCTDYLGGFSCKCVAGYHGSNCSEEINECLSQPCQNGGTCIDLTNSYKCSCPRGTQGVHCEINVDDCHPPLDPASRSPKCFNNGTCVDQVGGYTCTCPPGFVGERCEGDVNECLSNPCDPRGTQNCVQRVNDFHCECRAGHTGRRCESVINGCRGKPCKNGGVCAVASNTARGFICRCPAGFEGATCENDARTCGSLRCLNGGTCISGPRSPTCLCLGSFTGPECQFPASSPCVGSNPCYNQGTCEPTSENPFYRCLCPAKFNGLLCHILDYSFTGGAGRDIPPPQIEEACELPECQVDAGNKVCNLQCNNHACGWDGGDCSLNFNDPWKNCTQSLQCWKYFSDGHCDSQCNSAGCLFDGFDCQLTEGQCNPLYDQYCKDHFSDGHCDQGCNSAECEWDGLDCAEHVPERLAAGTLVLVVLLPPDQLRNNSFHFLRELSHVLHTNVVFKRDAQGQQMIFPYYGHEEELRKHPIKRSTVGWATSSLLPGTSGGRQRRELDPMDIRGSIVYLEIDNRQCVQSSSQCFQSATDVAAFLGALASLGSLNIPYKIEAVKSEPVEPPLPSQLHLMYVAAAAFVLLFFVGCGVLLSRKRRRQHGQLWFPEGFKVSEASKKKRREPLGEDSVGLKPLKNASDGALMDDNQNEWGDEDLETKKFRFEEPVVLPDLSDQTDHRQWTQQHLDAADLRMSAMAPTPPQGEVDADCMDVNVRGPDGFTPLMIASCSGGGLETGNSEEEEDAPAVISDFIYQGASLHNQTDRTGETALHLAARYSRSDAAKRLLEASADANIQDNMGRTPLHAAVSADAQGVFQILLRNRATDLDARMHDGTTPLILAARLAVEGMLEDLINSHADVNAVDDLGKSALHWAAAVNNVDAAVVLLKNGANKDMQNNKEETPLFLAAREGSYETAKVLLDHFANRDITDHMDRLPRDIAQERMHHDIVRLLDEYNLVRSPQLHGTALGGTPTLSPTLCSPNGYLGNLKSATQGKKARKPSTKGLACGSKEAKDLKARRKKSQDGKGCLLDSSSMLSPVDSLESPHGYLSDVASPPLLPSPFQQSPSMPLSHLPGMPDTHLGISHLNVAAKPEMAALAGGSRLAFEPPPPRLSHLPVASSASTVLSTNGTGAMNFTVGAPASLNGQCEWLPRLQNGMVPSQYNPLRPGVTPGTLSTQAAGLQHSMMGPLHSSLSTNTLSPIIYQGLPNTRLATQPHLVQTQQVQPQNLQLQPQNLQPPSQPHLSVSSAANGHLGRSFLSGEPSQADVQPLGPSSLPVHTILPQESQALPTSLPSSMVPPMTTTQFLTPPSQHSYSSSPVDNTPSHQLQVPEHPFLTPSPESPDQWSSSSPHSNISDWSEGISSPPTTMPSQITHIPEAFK
UniProt O35516, residues 26-2473: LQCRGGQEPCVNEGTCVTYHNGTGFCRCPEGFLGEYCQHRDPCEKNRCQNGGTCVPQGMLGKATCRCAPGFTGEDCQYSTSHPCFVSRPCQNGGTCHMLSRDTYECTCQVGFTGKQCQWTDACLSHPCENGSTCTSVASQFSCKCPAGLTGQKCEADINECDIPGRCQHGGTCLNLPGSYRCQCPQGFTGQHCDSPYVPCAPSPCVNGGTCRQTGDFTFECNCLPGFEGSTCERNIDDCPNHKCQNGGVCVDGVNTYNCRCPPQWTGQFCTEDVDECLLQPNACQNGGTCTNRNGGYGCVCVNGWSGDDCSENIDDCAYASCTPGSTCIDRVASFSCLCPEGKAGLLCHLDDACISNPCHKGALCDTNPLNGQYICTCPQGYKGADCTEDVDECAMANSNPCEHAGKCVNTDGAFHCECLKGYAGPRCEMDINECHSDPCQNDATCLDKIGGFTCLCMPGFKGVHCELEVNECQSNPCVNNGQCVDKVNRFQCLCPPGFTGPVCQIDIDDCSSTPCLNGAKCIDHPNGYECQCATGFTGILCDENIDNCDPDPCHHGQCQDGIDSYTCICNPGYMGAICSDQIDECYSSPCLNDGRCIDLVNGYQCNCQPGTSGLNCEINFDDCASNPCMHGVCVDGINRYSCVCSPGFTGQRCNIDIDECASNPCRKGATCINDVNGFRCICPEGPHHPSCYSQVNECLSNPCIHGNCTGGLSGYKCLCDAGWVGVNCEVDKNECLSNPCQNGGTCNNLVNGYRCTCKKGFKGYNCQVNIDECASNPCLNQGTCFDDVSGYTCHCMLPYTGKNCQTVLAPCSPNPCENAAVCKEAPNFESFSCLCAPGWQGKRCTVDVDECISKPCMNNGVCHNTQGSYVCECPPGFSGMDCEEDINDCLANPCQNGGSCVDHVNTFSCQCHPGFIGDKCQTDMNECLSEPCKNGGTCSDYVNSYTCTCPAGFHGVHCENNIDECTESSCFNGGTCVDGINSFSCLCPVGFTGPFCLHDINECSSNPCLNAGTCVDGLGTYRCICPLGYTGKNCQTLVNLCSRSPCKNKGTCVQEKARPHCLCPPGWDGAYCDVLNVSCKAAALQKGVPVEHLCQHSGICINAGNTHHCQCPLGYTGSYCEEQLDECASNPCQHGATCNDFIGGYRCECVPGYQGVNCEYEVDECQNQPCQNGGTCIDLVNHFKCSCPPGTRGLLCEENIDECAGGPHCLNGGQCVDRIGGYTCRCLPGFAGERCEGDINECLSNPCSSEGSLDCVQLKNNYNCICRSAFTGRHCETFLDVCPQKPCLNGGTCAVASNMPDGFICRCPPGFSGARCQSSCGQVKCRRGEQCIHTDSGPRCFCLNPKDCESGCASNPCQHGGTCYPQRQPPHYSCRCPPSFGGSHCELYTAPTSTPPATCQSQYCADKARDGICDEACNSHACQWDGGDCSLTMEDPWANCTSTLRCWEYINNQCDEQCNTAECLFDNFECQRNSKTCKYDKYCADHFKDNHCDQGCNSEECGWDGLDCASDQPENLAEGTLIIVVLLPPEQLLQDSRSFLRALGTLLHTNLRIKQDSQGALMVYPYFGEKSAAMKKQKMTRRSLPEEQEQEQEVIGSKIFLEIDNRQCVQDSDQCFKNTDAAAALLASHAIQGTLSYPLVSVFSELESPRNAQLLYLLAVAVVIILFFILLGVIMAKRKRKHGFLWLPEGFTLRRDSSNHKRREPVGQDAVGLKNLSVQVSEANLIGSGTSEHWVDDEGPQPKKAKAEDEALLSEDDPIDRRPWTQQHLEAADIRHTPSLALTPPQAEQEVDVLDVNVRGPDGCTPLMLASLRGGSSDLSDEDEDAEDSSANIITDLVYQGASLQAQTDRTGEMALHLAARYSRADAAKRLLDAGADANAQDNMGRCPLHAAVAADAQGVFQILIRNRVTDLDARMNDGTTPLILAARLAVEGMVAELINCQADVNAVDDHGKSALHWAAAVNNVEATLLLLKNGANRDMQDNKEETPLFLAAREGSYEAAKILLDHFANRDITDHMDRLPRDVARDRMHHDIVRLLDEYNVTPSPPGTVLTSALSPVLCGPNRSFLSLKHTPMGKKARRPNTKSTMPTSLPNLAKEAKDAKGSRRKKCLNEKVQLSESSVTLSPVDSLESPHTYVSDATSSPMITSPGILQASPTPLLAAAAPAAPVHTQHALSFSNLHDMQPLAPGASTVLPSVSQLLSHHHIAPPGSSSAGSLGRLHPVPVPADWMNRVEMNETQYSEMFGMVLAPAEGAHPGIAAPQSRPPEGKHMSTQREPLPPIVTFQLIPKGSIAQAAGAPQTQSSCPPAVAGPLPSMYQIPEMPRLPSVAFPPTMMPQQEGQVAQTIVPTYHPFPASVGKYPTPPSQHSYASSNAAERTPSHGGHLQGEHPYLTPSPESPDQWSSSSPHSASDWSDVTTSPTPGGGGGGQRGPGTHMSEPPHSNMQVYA

Assays:
Assay in all cases: co-IP; antibody (anti-PEAR1, anti-Notch1 or anti-Notch2) on magnetic beads, 2 h at 4 °C, then incubated with extracted total cellular protein of C2C12 cells for 2 h at 4 °C; Western blotting; rabbit IgG as negative control
[1] = biological target: T1, Platelet Endothelial Aggregation Receptor 1 (PEAR1) (mouse (endogenous in C2C12)) (UniProt Q8VIK5)
T1 sequence: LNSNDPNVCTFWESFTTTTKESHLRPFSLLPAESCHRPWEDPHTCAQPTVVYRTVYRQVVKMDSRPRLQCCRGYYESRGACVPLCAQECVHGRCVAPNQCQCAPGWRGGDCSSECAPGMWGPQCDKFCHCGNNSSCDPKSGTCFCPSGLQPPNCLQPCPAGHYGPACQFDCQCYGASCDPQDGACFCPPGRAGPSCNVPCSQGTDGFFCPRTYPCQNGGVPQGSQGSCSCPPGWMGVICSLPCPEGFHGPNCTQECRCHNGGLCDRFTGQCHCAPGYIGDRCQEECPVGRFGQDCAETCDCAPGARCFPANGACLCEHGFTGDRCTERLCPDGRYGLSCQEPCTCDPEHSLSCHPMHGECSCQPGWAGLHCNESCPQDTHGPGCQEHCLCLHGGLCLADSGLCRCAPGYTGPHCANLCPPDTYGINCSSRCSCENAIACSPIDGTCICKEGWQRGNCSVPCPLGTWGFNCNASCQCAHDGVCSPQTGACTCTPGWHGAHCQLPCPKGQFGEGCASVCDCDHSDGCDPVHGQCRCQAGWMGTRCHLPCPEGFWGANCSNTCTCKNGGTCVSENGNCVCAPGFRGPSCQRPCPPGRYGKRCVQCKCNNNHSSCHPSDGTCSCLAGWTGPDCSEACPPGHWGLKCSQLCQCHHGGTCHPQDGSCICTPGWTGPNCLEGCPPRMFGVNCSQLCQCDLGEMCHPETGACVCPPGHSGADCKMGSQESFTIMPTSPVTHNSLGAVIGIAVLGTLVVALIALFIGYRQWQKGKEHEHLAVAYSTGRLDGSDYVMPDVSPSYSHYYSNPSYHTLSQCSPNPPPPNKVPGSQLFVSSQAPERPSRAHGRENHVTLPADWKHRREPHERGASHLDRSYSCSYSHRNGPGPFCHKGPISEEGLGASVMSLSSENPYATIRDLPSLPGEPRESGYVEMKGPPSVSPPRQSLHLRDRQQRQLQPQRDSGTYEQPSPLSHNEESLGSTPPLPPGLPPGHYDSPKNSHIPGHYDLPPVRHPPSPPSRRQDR

[2] = biological target: Notch1 (mouse (endogenous in C2C12)) (UniProt Q01705)
[3] = biological target: Notch2 (mouse (endogenous in C2C12)) (UniProt O35516)

Molecule	binding [1]	binding [2]	binding [3]
Notch1 (from UniProt Q01705 19-2531) (receptor)	binds		
Notch2 (from UniProt O35516 26-2473) (receptor)	binds		
Platelet Endothelial Aggregation Receptor 1 (PEAR1) (protein, UniProt Q8VIK5 19-1034) LNSNDPNVCTFWESFTTTTKESHLRPFSLLPAESCHRPWEDPHTCAQPTVVYRTVYRQVVKMDSRPRLQCCRGYYESRGACVPLCAQECVHGRCVAPNQCQCAPGWRGGDCSSECAPGMWGPQCDKFCHCGNNSSCDPKSGTCFCPSGLQPPNCLQPCPAGHYGPACQFDCQCYGASCDPQDGACFCPPGRAGPSCNVPCSQGTDGFFCPRTYPCQNGGVPQGSQGSCSCPPGWMGVICSLPCPEGFHGPNCTQECRCHNGGLCDRFTGQCHCAPGYIGDRCQEECPVGRFGQDCAETCDCAPGARCFPANGACLCEHGFTGDRCTERLCPDGRYGLSCQEPCTCDPEHSLSCHPMHGECSCQPGWAGLHCNESCPQDTHGPGCQEHCLCLHGGLCLADSGLCRCAPGYTGPHCANLCPPDTYGINCSSRCSCENAIACSPIDGTCICKEGWQRGNCSVPCPLGTWGFNCNASCQCAHDGVCSPQTGACTCTPGWHGAHCQLPCPKGQFGEGCASVCDCDHSDGCDPVHGQCRCQAGWMGTRCHLPCPEGFWGANCSNTCTCKNGGTCVSENGNCVCAPGFRGPSCQRPCPPGRYGKRCVQCKCNNNHSSCHPSDGTCSCLAGWTGPDCSEACPPGHWGLKCSQLCQCHHGGTCHPQDGSCICTPGWTGPNCLEGCPPRMFGVNCSQLCQCDLGEMCHPETGACVCPPGHSGADCKMGSQESFTIMPTSPVTHNSLGAVIGIAVLGTLVVALIALFIGYRQWQKGKEHEHLAVAYSTGRLDGSDYVMPDVSPSYSHYYSNPSYHTLSQCSPNPPPPNKVPGSQLFVSSQAPERPSRAHGRENHVTLPADWKHRREPHERGASHLDRSYSCSYSHRNGPGPFCHKGPISEEGLGASVMSLSSENPYATIRDLPSLPGEPRESGYVEMKGPPSVSPPRQSLHLRDRQQRQLQPQRDSGTYEQPSPLSHNEESLGSTPPLPPGLPPGHYDSPKNSHIPGHYDLPPVRHPPSPPSRRQDR		binds	binds
